About 170 (0.05%) of roughly 340,000 compounds were called active. The inconclusive results got no clear call from the source; some entries with a clear call stand among them for comparison. The call rests on the fitted dose curve; in most records, active means well fitted inhibition curve with a large enough effect in the signal ratio, with a control signal flat (not every such curve was filed as active); inconclusive means small, poorly fitted or top-dose-only effect, or effect the other way, or a change in a side signal; inactive means flat fitted curve, though single readings scatter; the % refers to the signal ratio. Where the call is inconclusive, the potency comes from a doubtful curve fit.
Assay: qHTS Assay to Find Inhibitors of Chronic Active B-Cell Receptor Signaling;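 on activity change, negative = inhibition: plate controls were basal doxycycline-induced cells for no effect and cells given 10 µM MG132 for full effect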
Details: ABC-DLBCL IkBa-CBG/CBR reporter, luminescence ratio (green luciferase fused to IkBa over red control in TMD8 lymphoma cells), 4 h; activity change, negative = inhibition: at 46.1 µM (top of the series)
Procedure, shortened: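 TMD8 human ABC-DLBCL cells with doxycycline-inducible IκBα–green luciferase fusion and unfused red luciferase, in 0.5% FBS medium; compounds up to 46 uM, 4 h at 37C. Green/red luminescence ratio, filter-overlap corrected, fitted to concentration-response curves.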
Potency means the concentration at half of the fitted maximal effect.

SMILES	activity change, negative = inhibition	Potency
COc1ccc([N+](=O)[O-])cc1NC(=O)C(C)N(C)Cc1cccc(OC)c1OC (stereo unspecified)	inactive: -4.42%	
O=[N+]([O-])c1ccc(N2CCOCC2)cc1NCc1ccccc1	inconclusive: -16.4%	
C/C(CC(=O)Nc1ccc2c(c1)OCCO2)=N\NC(=O)c1ccccc1F		inconclusive: 31.6 µM [rising, single point]
COc1cccc(/C=C2\SC(=O)NC2=O)c1OCc1ccc(C(=O)O)cc1	inactive: -1.98%	
COc1ccc(-c2nnc(SC(C(=O)c3c[nH]c4ccccc34)c3ccccc3)n2N)cc1OC (stereo unspecified)	inconclusive: 7.87%	
CCOC(=O)c1nn(-c2ccc(Cl)cc2)c2nnc(Cc3ccc(C)cc3)c(=O)n12	inactive: 1.25%	
COc1ccc(Cn2cnc3c(N)c(C)c(C)cc32)cc1	inactive: -2.26%	
Cc1cccc2cc(C#N)c(NCCNC(=S)NCCCN3CCOCC3)nc12	inconclusive: -11.5%	
CCOC(=O)COC(=O)c1ccc(O)cc1	inactive: 4.22%	
O=C1Oc2ccccc2C(=O)/C1=C/c1ccccc1O		inconclusive: 14.1 µM [falling, partial curve, poor fit]
COc1ccc(C(=O)NCc2nnc(SCC(=O)Nc3cc(OC)ccc3OC)o2)cc1	inactive: 1.39%	
O=C(O)c1cc([N+](=O)[O-])c(Nc2cccc3ccccc23)c([N+](=O)[O-])c1	inconclusive: 6.42%	
CN(C)S(=O)(=O)c1cccc(COc2cccnc2[N+](=O)[O-])c1		inconclusive: 20 µM [falling, single point]
N#Cc1ccccc1NC(=O)CNc1ccc(Cl)c(C(F)(F)F)c1	inconclusive: -29.6%	
O=S(=O)(NCCSc1ccccc1)c1ccc(F)cc1	inactive: -0.865%	
O=[N+]([O-])c1c(C(Cl)Cl)nn(-c2ccc(Cl)cc2)c1N1CCCCC1	inactive: 5.84%	
COc1ccccc1-c1nnc(SCC(=O)N2CCCC2)o1		inconclusive: 25.1 µM [falling, single point]
O=C(N/N=C\c1cc(Br)ccc1O)c1ccc(S(=O)(=O)N2CCCCC2)cc1	inactive: 2.36%	
CC1(CCC(=O)N2CCCC(N3CCN(c4ccc(F)cc4)CC3)C2)CC1 (stereo unspecified)	inconclusive: 0.126%	
CC(Sc1nnc(-c2ccco2)n1C)C(=O)N1C(C)CCCC1C (stereo unspecified)	inactive: 1.84%	
CCOC(=O)c1ccc(NC(=O)N2CCc3ccccc32)cc1		inconclusive: 25.9 µM [falling, single point]
CCc1ccc(CN2CCC(n3nccc3NC(=O)c3ccccc3C)CC2)cc1	inactive: 1.42%	

SMILES	activity change, negative = inhibition	Potency
CCc1ccc(OCC(=O)Nc2ccc(S(=O)(=O)N3CCOCC3)cc2)cc1	inconclusive: 5.96%	
CCCCSc1nnc(-c2ccc(OC)cc2)n1C	inconclusive: -2.77%	
CCc1ccc(C(CNc2nc(C(F)(F)F)nc3ccccc23)N(C)C)cc1 (stereo unspecified)	inconclusive: -2.66%	
Brc1ccc2nc(-c3c[nH]c4ccccc34)cn2c1	inconclusive: -5.49%	
COc1ccc(NC(=O)CCCc2ccccc2)cc1OC	inconclusive: 8.01%	
CN1CCC(OC(c2ccccc2)c2ccccc2)CC1	inactive: 2.06%	
COc1ccc(CCNC(=O)Cn2c(=O)n(Cc3ccco3)c(=O)c3ccc(Cl)cc32)cc1OC		inconclusive: 32.6 µM [rising, partial curve, poor fit]
Cc1ccc(-n2nc3c(c2NC(=O)C(C)(C)C)CS(=O)(=O)C3)cc1	inactive: 0.346%	
Cc1ccc(/C=C/C(=O)OCn2nnc3ccccc3c2=O)o1	inactive: -1.08%	
c1ccc(Sc2ncnc3c2oc2ccccc23)nc1		inconclusive: 18.4 µM [falling, single point]
CCCCN(C)C(=S)Nc1ccc(Oc2ccccc2)cc1	inactive: 10.6%	
COc1ccc(COCC(O)CN2CCC(CN3C(=O)c4cccc5cccc(c45)C3=O)CC2)cc1OC (stereo unspecified)	inconclusive: -14.6%	
COc1cccc(C(=O)O/N=C(\N)c2ccncc2)c1		inconclusive: 35.5 µM [falling, single point]
S=C(Nc1ccc(N2CCOCC2)cc1)Nc1ccc2snnc2c1	inconclusive: 8.65%	
Cc1ccc(CSC2=NCCN2C(=O)C2CC2)cc1	inconclusive: 2.42%	
Cc1nn(-c2ccc(Cl)c(Cl)c2)c(C)c1C(=O)O		inconclusive: 4.47 µM [rising, partial curve]
CC(C)n1nnnc1SCC(=O)Nc1ccc2c(c1)OCCO2	inconclusive: -8.45%	
O=C(/C=C/c1ccc(Cl)cc1Cl)c1ccc[nH]1		inconclusive: 35.5 µM [falling, single point]
COc1ccc(C(CNC(=O)c2ccc(Br)o2)N2CCN(C)CC2)cc1 (stereo unspecified)	inactive: 0.165%	
CC1(C)CC(NC(=O)c2cc(S(=O)(=O)N3CCOCC3)c(Cl)cc2Cl)CC(C)(C)N1	inactive: 0.372%	
CC(C)(C)n1ncc2c(=O)n(CC(=O)c3ccc(Cl)cc3)cnc21	inactive: 13.2%	
Cc1cc(C(=O)NCc2ccco2)c2cc(F)ccc2n1	inconclusive: 1.1%	

SMILES	activity change, negative = inhibition	Potency
O=C(COC(=O)c1ccccc1Cc1ccccc1)Nc1ccc(SC(F)F)cc1	inconclusive: -14.7%	
Cc1ccc(SCn2nnc3ccccc3c2=O)c(C)c1	inactive: -5.92%	
COc1ccccc1NC(=S)NC(=O)c1ccc(-c2ccc(Cl)cc2)o1	inactive: -0.0703%	
N#C/C(=C/c1ccc(O)c(O)c1)c1nc2ccccc2[nH]1	inconclusive: 0.892%	
CCCCc1ccc(NC(=O)Nc2cccnc2)cc1	inconclusive: -19%	
Brc1ccc(-c2nnc(-c3ccccc3Br)o2)cc1	inactive: 6.37%	
O=C(CSc1nnc(NC(=O)c2cccc(F)c2)s1)NCc1ccco1	inconclusive: -25.3%	
Cc1cc(NC(=O)Nc2ccc(Cl)cc2)n(C)n1	inconclusive: 9.09%	
O=C1CCCC2=C1C(c1ccccc1)n1c(s/c(=C/c3cccc(F)c3)c1=O)=N2 (stereo unspecified)	inconclusive: 15.6%	
CCc1ccc(NC(=O)CSC2=Nc3ccccc3C3=NC(CCC(=O)NCc4ccccc4)C(=O)N23)cc1 (stereo unspecified)	inconclusive: -12.8%	
CCc1cc2c3c(c(=O)oc2cc1OCC(=O)OC)CCCC3	inconclusive: 10.7%	
O=C(N/N=C\c1ccc2c(c1)OCO2)c1cncc(Br)c1		inconclusive: 2.24 µM [falling, full curve, poor fit]
O=C(Nc1ccsc1C(=O)O)c1cccc(C(F)(F)F)c1	inconclusive: -12.4%	
COc1ccc(/C=C/C(=O)O)cc1O	inconclusive: 4.84%	
Fc1ccc2cc(-c3ccccc3)ncc2c1	inconclusive: 6.74%	
O=S(=O)(NCCc1csc(-c2ccccc2)n1)c1ccc2c(c1)OCCO2	inconclusive: -18.7%	
Cc1ccc(NC2Sc3ccccc3NC2=O)cc1Cl (stereo unspecified)		inconclusive: 8.91 µM [falling, partial curve, poor fit]
CC(C)=CCOc1c2ccoc2cc2oc(=O)ccc12	inconclusive: 11.7%	
CCOC(=O)C1(Cc2ccccc2)CCN(Cc2cnn(CC)c2)CC1		inconclusive: 22.4 µM [falling, single point]
C(=C\c1nc(-c2ccncc2)no1)/c1ccccc1	inactive: 0.598%	
CCOC(=O)[C@H]1[C@H]2COc3ccccc3[C@@H]2N2C(=O)c3cc(Cl)ccc3NC(=O)[C@@]12C	inconclusive: 3.82%	
O=C(CNC(=O)Cc1ccccc1)NCC(=O)OCC(=O)c1ccc(F)cc1	inconclusive: 5.91%	

SMILES	activity change, negative = inhibition	Potency
CC(=O)Nc1c(C(N)=O)oc2ccc(Cl)cc12	inconclusive: 5.97%	
Cc1nc2c(C)cccc2c2c1CCN2c1ccccc1F	inactive: 0.213%	
N=C(N)SCP(=O)(c1ccccc1)c1ccccc1		inconclusive: 17.8 µM [falling, partial curve]
CCn1c(SCC(=O)N2CCCCC2C)nc2ccsc2c1=O (stereo unspecified)	inconclusive: 3.2%	
Cc1sc2ncnc(OCC(=O)N3CCN(S(=O)(=O)c4ccc(Cl)cc4)CC3)c2c1C	inconclusive: 8.5%	
CC1CSc2nc3sc4c(c3c(=O)n21)CCCC4 (stereo unspecified)	inconclusive: -1.27%	
CCN(CC)c1ccc(NC(=O)CN2CCN(CC(=O)Nc3ccc(F)cc3)CC2)cc1	inactive: -11.1%	
CCOc1ccc(CCNS(=O)(=O)c2cc(Br)cc3c2N(C(C)=O)CC3)cc1OCC	inconclusive: -8.94%	
Cc1cc(N2CCN(c3ccccc3)CC2)nc2ccccc12	inconclusive: 0.0438%	
Cc1cc(NC(=O)Nc2cc(C)nn2-c2ccccc2)n(-c2ccccc2)n1		inconclusive: 29.1 µM [falling, single point]
CCOC(=O)c1c(NC(=O)c2ccc(S(=O)(=O)N(CC(C)C)CC(C)C)cc2)sc2c1CCN(C(=O)OCC)C2	inconclusive: 2.78%	
Cc1ccc(NC(=O)C[n+]2ccccc2)cc1[N+](=O)[O-]	inconclusive: -7.2%	
Cc1cc(C)cc(NS(=O)(=O)c2ccc3c(c2)c(=O)n(C)c(=O)n3C)c1	inconclusive: 5.41%	
CC1(C)CC2(C)OC(=N)C1(C#N)C2(C#N)C#N (stereo unspecified)	inconclusive: -20.2%	
CN(C)CCOc1ccc(-c2c(-c3ccsc3)sc3ccccc23)cc1	inconclusive: -17.2%	
CC1=Nc2ccccc2/C1=C/c1sc(=S)n(-c2cccc(C(=O)O)c2)c1O		inconclusive: 28.2 µM [falling, single point]
O=C(Nc1ncc2c(n1)-c1ccccc1CC2)c1cccc(Cl)c1		inconclusive: 22.4 µM [falling, partial curve]
Cc1ccc(C)c(S(=O)(=O)N2CCN(C(=O)c3ccccn3)CC2)c1	inconclusive: -0.0951%	
CCn1cc(C(=O)NC(C)C)c(=O)c2cc(F)c(N3CCN(C(=O)c4ccco4)CC3)cc21	inactive: 8.33%	
CCn1c(=S)ccc2ccc(OC)cc21		inconclusive: 23.1 µM [falling, single point]

3 entries from above, as a markdown table:

| SMILES | activity change, negative = inhibition | Potency |
| --- | --- | --- |
| CC1=Nc2ccccc2/C1=C/c1sc(=S)n(-c2cccc(C(=O)O)c2)c1O |  | inconclusive: 28.2 µM [falling, single point] |
| O=C(Nc1ncc2c(n1)-c1ccccc1CC2)c1cccc(Cl)c1 |  | inconclusive: 22.4 µM [falling, partial curve] |
| Cc1ccc(C)c(S(=O)(=O)N2CCN(C(=O)c3ccccn3)CC2)c1 | inconclusive: -0.0951% |  |

Source: PubChem BioAssay AID493014 (National Center for Advancing Translational Sciences (NCATS), 2011)
